This is one part of the list.
Tests used:
Assay in all cases: log2 fold change, soluble protein after heating vs DMSO (PISA); higher = thermal stabilisation; K562 cells, 10 uM, 30 min; active = over 0.2 and 3.5 SD of the protein, either way, in both replicates (recomputed)
[1] = compound: Cc1ccc(NC(=O)c2ccc(CN3CC[C@H](N(C)C)C3)c(C(F)(F)F)c2)cc1Nc1nccc(-c2cncnc2)n1 [bafetinib]
In short: (§1)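 Soluble protein was defined as the supernatant after 21,000xg for 90 min. It came from K562 cells at 2×10^6 cells/mL given 10 μM compound for 30 min, heated in aliquots for 3 min across 48°C-58°C, pooled, and extracted in PBS with 0.5% NP-40 at 4°C, and was quantified by TMTpro 16plex LC-MS/MS with equalised channel sums. Thermal stability against control samples, from duplicates, is reported as log2 fold change.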

Sequences of proteins named here, by UniProt entry; tags and fusion partners are left off. A change or cut given only in a name is not applied to a line headed by its entry.
UniProt Q9BX66: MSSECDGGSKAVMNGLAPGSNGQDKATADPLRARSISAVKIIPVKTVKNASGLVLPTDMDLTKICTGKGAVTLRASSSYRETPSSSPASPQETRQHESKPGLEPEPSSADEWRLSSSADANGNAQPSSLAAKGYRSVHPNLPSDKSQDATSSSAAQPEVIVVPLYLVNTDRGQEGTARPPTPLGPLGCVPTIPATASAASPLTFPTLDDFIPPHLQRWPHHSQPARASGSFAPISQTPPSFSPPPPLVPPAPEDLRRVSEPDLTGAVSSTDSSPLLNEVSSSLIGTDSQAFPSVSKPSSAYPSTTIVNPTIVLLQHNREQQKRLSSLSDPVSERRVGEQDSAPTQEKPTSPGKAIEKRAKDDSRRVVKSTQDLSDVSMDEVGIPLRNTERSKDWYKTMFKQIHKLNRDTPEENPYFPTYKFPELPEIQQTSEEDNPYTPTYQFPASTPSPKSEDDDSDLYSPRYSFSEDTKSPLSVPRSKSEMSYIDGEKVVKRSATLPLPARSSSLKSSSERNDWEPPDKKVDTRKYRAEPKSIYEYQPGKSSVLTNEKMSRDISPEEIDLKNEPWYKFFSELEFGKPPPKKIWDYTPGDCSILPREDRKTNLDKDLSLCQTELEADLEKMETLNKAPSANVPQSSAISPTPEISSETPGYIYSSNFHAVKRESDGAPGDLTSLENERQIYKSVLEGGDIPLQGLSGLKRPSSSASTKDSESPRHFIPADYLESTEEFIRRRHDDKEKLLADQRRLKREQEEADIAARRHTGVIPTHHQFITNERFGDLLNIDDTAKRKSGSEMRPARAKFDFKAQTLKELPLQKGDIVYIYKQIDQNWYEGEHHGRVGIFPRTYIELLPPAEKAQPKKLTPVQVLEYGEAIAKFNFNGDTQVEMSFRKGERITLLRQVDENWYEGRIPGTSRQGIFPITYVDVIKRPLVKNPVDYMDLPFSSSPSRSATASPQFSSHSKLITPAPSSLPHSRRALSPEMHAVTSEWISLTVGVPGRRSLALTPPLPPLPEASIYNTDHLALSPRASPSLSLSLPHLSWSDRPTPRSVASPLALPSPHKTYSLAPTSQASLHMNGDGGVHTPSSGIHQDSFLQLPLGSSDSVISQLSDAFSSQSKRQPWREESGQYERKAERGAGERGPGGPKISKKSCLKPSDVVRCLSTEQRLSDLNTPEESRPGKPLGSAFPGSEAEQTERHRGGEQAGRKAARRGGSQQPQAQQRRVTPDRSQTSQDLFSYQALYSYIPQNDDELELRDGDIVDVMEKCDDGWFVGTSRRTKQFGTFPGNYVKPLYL
UniProt Q92922, whole entry, looked up: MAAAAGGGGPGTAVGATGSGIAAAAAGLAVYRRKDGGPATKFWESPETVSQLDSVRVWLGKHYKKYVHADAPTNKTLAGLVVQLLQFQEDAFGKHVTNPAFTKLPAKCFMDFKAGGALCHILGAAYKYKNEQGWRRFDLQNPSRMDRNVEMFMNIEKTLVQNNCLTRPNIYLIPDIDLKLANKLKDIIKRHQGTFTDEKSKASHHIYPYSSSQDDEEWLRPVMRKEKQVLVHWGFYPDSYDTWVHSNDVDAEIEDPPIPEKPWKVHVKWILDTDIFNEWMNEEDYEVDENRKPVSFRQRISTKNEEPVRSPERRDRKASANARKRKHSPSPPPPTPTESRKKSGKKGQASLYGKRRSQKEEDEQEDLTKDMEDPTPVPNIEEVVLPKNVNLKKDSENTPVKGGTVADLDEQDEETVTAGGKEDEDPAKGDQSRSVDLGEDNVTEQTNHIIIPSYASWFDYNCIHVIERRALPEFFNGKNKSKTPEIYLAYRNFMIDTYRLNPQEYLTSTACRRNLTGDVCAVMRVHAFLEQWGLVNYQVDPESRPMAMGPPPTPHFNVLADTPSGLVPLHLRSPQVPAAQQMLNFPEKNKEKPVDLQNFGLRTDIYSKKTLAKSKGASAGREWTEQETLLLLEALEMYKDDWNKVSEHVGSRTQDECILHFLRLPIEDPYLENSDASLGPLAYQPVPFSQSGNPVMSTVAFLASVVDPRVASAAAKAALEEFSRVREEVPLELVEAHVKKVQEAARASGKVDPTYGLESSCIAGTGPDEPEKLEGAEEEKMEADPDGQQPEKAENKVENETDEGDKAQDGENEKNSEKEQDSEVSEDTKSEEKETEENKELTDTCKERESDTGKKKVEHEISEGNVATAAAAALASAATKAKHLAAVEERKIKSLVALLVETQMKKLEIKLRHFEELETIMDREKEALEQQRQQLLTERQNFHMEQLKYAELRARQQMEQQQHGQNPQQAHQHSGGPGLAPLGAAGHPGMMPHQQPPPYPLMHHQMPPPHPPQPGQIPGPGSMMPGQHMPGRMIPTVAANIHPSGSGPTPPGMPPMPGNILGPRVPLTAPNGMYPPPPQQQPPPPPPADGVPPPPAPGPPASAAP
UniProt Q8ND04: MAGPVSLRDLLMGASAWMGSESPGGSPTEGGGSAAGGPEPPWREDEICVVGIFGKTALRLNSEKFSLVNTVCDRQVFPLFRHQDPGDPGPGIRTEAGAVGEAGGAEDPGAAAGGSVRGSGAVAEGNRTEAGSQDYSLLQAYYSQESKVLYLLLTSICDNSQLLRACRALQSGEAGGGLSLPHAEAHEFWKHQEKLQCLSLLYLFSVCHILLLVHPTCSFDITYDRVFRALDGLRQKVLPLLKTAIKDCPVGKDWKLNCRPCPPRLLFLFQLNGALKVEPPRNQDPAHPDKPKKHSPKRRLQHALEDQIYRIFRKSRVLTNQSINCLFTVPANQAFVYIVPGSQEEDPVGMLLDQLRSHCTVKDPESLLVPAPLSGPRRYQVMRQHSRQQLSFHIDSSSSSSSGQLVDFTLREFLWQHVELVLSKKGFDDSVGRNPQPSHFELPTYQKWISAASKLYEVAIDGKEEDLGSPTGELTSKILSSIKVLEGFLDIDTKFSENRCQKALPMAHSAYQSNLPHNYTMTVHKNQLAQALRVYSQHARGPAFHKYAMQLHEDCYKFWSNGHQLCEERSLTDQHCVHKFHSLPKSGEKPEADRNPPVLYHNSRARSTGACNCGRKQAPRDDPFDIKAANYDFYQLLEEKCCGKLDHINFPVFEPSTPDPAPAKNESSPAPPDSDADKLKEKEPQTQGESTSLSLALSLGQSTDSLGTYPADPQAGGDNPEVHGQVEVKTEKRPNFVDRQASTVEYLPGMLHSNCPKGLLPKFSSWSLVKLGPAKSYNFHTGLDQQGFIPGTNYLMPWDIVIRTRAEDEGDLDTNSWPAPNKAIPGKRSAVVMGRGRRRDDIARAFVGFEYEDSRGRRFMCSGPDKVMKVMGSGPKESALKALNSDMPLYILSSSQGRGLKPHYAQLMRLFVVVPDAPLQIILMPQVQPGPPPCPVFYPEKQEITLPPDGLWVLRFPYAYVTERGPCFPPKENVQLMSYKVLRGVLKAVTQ
UniProt P08047, whole entry, looked up: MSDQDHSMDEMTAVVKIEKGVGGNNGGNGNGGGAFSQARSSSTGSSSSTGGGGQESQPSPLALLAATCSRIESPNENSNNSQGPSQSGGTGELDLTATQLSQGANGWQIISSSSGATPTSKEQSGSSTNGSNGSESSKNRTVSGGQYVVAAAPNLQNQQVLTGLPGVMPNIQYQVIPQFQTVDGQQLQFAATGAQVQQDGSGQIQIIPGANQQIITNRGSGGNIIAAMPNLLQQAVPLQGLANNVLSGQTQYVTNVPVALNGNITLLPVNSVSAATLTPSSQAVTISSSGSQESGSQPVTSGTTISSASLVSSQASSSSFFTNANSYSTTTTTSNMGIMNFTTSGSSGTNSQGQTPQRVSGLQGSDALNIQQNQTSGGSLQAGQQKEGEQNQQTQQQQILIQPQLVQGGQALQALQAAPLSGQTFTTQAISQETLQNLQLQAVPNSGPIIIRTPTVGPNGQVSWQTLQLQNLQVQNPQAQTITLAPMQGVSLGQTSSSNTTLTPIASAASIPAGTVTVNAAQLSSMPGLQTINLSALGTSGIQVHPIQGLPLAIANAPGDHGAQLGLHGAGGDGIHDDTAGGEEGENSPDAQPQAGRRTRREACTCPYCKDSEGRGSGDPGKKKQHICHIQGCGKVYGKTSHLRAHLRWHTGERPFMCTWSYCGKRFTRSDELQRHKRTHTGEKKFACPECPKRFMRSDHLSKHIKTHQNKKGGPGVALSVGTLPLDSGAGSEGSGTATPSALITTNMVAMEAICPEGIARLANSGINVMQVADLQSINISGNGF
UniProt P57768: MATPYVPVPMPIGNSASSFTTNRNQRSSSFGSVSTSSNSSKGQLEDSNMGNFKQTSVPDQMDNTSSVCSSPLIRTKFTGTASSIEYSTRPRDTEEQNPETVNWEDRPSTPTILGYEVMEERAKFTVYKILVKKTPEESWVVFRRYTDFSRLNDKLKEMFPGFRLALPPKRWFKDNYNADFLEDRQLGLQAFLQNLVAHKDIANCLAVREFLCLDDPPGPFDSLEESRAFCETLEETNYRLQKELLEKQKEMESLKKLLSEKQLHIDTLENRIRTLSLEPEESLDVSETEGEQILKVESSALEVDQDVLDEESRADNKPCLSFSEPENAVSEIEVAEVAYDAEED
UniProt O60749: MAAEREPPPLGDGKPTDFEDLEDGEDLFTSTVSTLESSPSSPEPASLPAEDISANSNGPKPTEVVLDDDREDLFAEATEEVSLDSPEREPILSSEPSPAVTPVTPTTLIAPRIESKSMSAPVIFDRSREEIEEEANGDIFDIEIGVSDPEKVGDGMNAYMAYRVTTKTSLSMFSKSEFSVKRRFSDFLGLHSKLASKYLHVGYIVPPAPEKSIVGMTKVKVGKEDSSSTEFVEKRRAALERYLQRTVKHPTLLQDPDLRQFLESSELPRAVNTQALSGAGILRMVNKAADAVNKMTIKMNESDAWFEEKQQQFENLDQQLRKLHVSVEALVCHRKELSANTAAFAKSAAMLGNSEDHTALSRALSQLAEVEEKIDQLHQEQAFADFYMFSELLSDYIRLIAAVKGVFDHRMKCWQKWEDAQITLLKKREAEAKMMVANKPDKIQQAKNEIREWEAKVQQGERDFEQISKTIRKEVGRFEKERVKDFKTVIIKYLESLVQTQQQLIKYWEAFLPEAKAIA
UniProt P52788: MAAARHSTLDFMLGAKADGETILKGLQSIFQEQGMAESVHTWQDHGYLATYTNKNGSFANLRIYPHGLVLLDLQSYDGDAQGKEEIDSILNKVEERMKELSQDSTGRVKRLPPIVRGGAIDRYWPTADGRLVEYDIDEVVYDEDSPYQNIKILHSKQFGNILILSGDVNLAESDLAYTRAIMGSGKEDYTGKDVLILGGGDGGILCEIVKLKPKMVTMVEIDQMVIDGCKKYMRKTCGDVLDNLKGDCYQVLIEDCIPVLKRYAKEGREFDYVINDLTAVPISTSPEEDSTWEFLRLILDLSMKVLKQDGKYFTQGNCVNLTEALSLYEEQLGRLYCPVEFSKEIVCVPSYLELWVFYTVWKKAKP

[2] = compound: Cc1cccc(CC(=O)N2CCc3c2ccc(-c2cn(C)c4ncnc(N)c24)c3F)n1
In short: as §1

[3] = compound: Cc1cn(-c2cc(NC(=O)c3ccc(C)c(Nc4nccc(-c5cccnc5)n4)c3)cc(C(F)(F)F)c2)cn1 [nilotinib]
In short: as §1

[4] = compound: Cc1nc(Nc2n[nH]c3c2CN(C(=O)N[C@H](CN(C)C)c2ccccc2)C3(C)C)c2sccc2n1
In short: as §1

[5] = compound: Cc1nc(Nc2ncc(C(=O)Nc3c(C)cccc3Cl)s2)cc(N2CCN(CCO)CC2)n1 [dasatinib]
In short: as §1

[6] = compound: Cc1ncc(-c2ccnc(Nc3ccc(S(C)(=O)=O)cc3)n2)n1C(C)C
In short: as §1

[7] = compound: Cn1cc(-c2ccc3c(c2)CCN3C(=O)Cc2cccc(C(F)(F)F)c2)c2c(N)ncnc21
In short: as §1

[8] = compound: Cn1cc(-c2ccc3nnc(C(F)(F)c4ccc5ncccc5c4)n3n2)cn1
In short: as §1

[9] = compound: Cn1cncc1[C@@](N)(c1ccc(Cl)cc1)c1ccc2c(c1)c(-c1cccc(Cl)c1)cc(=O)n2C [tipifarnib]
In short: as §1

[10] = compound: FC(F)(F)c1ccc(/C=C/c2nc(COc3ccc(CCCCn4ccnn4)cc3)co2)cc1 [mubritinib]
In short: as §1

[11] = compound: NC(=O)Nc1cc(-c2cccc(F)c2)sc1C(=O)N[C@H]1CCCNC1
In short: as §1

[12] = compound: NC(=O)c1cnc(N[C@@H]2CCCC[C@@H]2N)nc1Nc1cccc(-n2nccn2)c1
In short: as §1

[13] = compound: NC1(c2ccc(-c3nc4ccn5c(=O)[nH]nc5c4cc3-c3ccccc3)cc2)CCC1
In short: as §1

[14] = compound: NCC(=O)Nc1ccc(-n2nc(C(F)(F)F)cc2-c2ccc3c(ccc4ccccc43)c2)cc1
In short: as §1

[15] = compound: Nc1ccccc1NC(=O)c1ccc(CNC(=O)OCc2cccnc2)cc1 [entinostat]
In short: as §1

[16] = compound: O=C(CCCCCCC(=O)Nc1ccccc1)NO [vorinostat]
In short: as §1

[17] = compound: O=C(CCCCCCNC(=O)c1cnc(N(c2ccccc2)c2ccccc2Cl)nc1)NO [citarinostat]
In short: as §1

[18] = compound: O=C(O)c1ccc2c(c1)nc(Nc1cccc(Cl)c1)c1ccncc12 [silmitasertib]
In short: as §1

[19] = compound: O=C1NC(=O)C(c2cnc3ccccn23)=C1c1cn2c3c(cc(F)cc13)CN(C(=O)N1CCCCC1)CC2
In short: as §1

[20] = compound: c1cc(OCCN2CCCCC2)cc(-c2n[nH]c3ccc(-c4nnc[nH]4)cc23)c1
In short: as §1

Measured: log2 fold change

SORBS1 isoform 12 (UniProt Q9BX66)
inactive: [1] -0.065 | [2] -0.117 | [3] 0.036 | [4] -0.098 | [5] -0.02 | [6] -0.025 | [7] 0.073 | [8] -0.009 | [9] 0.047 | [10] 0.024 | [11] 0.045 | [12] -0.059 | [13] -0.014 | [14] -0.051 | [15] -0.039 | [16] -0.017 | [17] 0.065 | [18] -0.024 | [19] -0.12 | [20] 0.07

SMARCC1 (UniProt Q92922)
inactive: [1] -0.003 | [2] 0.03 | [3] -0.137 | [4] 0.106 | [5] -0.125 | [6] 0.014 | [7] -0.005 | [8] 0.07 | [9] -0.093 | [10] 0.12 | [11] -0.006 | [12] -0.032 | [13] -0.012 | [14] -0.115 | [15] -0.009 | [16] 0.178 | [17] 0.049 | [18] 0.14 | [19] -0.128 | [20] -0.28

SMG8 isoform 2 (UniProt Q8ND04)
inactive: [1] 0.091 | [2] 0.096 | [3] -0.001 | [4] -0.028 | [5] -0.013 | [6] -0.031 | [7] -0.033 | [8] 0.012 | [9] -0.023 | [11] 0.121 | [12] 0.124 | [14] -0.055 | [15] -0.047 | [16] 0.025 | [17] 0.041 | [19] 0.233 | [20] 0.044

SP1 (UniProt P08047)
inactive: [1] -0.041 | [2] -0.006 | [3] 0.005 | [4] -0.003 | [5] -0.005 | [6] -0.02 | [7] -0.018 | [8] 0.091 | [9] 0.01 | [10] -0.023 | [11] -0.017 | [12] 0.011 | [13] 0.1 | [14] -0.001 | [15] -0.005 | [16] 0.052 | [17] -0.057 | [18] -0.007 | [19] 0.088 | [20] -0.088

SNX16 (UniProt P57768)
inactive: [1] 0.042 | [2] 0.101 | [3] -0.001 | [4] 0.059 | [5] -0.05 | [6] -0.039 | [7] -0.104 | [8] 0 | [9] -0.056 | [10] 0.101 | [11] 0.019 | [13] -0.054 | [14] 0.073 | [15] -0.045 | [16] 0.068 | [17] 0 | [18] 0.029 | [19] -0.123 | [20] -0.086

SNX2 (UniProt O60749)
inactive: [1] -0.153 | [2] 0.088 | [3] -0.168 | [4] 0 | [5] -0.134 | [6] -0.275 | [7] 0.101 | [8] 0.021 | [9] -0.056 | [10] 0.044 | [11] -0.001 | [12] -0.204 | [13] -0.146 | [14] 0 | [15] 0.092 | [16] 0.093 | [17] 0.062 | [18] -0.068 | [19] -0.044 | [20] -0.082

SMS (UniProt P52788)
inactive: [1] -0.053 | [2] -0.04 | [3] 0.018 | [4] 0.013 | [5] 0.015 | [6] -0.013 | [7] 0.019 | [8] -0.006 | [9] -0.015 | [10] 0.042 | [11] -0.003 | [12] -0.021 | [13] -0.036 | [14] 0.016 | [15] -0.014 | [16] -0.028 | [17] 0.041 | [18] 0.004 | [19] -0.043 | [20] -0.003
